In patent publication US20070238146A1, “Kinetic metabolic assay for antifungal susceptibility testing” (priority 2006, published 2007):
Values after ≈ are worked out from the molar mass of the structure shown.

System: C. albicans CA-1
Test: standard broth dilution method, AmB MIC
Type: cell-based
Conditions: Candida albicans, CA1, strain CA-1
Protocol: C. albicans strain and medium. C. albicans CA-1 isolate obtained from the culture collection of Diane Brawner (Microbiology Department, Montana State University)(14). The strain was stored at −80° C. Planktonic cells were cultured in 2% YEPD medium (2% glucose, 1% bacto yeast extract, and 2% bacto peptone). The solid agar medium for the CFU assay was 1% glucose, 0.5% bacto yeast extract, 2% bacto agar, 0.1% ammonium sulfate dissolved in 20% tap water and 80% D.I. water.
AmB treatment. AmB was from Biosource International Inc. (Fungizone with 0.00205% sodium deoxycholate solubilizing agent). A standard broth dilution method was used to assess the AmB MlC of CA-1, with ATCC 24433 used as a reference strain (32). AmB treatment of planktonic cells and shear-removed biofilm was preformed in 1.5-ml centrifuge tubes. The tubes contained a total working volume of 450 μl. AmB dissolved in 200 μl of 0.1 M PBS (pH 7.0), and cells resuspended in 250 μl of PBS adjusted to an optical density of 0.05 (A660) were added to the 1.5-ml tube. After more than 10 preliminary experiments, the time between recovery of the shear-removed biofilm in the petri dish and exposure to AmB was reduced to approximately 5 min. The positive controls had no AmB, and the negative controls had no cells. […] This enabled recording of absorbance data for the metabolic indicator in real time without perturbing the well contents. […]

With `C[C@@H]1[C@H](O)[C@@H](C)/C=C/C=C/C=C/C=C/C=C/C=C/C=C/[C@H](O[C@@H]2O[C@H](C)[C@@H](O)[C@H](N)[C@@H]2O)C[C@@H]2O[C@](O)(C[C@@H](O)C[C@@H](O)[C@H](O)CC[C@@H](O)C[C@@H](O)CC(=O)O[C@H]1C)C[C@H](O)[C@H]2C(=O)O` [AmB, amphotericin B] the MIC was 0.5 µg/mL (≈ 0.541 µM).
